Experimental data as given in publication PMC4337726, “A molecular basis for the differential roles of Bub1 and BubR1 in the spindle assembly checkpoint” (eLife, 2015).
Results are given in words; binding and its absence hold for the method and conditions named. Binding seen in cells or lysates may run through a third protein. A yes stands for co-enrichment or nearness to the bait. Other partners may have been found.

Protein sequences, listed by entry. Tags and fused reporters are not part of them.
UniProt Q8NG31: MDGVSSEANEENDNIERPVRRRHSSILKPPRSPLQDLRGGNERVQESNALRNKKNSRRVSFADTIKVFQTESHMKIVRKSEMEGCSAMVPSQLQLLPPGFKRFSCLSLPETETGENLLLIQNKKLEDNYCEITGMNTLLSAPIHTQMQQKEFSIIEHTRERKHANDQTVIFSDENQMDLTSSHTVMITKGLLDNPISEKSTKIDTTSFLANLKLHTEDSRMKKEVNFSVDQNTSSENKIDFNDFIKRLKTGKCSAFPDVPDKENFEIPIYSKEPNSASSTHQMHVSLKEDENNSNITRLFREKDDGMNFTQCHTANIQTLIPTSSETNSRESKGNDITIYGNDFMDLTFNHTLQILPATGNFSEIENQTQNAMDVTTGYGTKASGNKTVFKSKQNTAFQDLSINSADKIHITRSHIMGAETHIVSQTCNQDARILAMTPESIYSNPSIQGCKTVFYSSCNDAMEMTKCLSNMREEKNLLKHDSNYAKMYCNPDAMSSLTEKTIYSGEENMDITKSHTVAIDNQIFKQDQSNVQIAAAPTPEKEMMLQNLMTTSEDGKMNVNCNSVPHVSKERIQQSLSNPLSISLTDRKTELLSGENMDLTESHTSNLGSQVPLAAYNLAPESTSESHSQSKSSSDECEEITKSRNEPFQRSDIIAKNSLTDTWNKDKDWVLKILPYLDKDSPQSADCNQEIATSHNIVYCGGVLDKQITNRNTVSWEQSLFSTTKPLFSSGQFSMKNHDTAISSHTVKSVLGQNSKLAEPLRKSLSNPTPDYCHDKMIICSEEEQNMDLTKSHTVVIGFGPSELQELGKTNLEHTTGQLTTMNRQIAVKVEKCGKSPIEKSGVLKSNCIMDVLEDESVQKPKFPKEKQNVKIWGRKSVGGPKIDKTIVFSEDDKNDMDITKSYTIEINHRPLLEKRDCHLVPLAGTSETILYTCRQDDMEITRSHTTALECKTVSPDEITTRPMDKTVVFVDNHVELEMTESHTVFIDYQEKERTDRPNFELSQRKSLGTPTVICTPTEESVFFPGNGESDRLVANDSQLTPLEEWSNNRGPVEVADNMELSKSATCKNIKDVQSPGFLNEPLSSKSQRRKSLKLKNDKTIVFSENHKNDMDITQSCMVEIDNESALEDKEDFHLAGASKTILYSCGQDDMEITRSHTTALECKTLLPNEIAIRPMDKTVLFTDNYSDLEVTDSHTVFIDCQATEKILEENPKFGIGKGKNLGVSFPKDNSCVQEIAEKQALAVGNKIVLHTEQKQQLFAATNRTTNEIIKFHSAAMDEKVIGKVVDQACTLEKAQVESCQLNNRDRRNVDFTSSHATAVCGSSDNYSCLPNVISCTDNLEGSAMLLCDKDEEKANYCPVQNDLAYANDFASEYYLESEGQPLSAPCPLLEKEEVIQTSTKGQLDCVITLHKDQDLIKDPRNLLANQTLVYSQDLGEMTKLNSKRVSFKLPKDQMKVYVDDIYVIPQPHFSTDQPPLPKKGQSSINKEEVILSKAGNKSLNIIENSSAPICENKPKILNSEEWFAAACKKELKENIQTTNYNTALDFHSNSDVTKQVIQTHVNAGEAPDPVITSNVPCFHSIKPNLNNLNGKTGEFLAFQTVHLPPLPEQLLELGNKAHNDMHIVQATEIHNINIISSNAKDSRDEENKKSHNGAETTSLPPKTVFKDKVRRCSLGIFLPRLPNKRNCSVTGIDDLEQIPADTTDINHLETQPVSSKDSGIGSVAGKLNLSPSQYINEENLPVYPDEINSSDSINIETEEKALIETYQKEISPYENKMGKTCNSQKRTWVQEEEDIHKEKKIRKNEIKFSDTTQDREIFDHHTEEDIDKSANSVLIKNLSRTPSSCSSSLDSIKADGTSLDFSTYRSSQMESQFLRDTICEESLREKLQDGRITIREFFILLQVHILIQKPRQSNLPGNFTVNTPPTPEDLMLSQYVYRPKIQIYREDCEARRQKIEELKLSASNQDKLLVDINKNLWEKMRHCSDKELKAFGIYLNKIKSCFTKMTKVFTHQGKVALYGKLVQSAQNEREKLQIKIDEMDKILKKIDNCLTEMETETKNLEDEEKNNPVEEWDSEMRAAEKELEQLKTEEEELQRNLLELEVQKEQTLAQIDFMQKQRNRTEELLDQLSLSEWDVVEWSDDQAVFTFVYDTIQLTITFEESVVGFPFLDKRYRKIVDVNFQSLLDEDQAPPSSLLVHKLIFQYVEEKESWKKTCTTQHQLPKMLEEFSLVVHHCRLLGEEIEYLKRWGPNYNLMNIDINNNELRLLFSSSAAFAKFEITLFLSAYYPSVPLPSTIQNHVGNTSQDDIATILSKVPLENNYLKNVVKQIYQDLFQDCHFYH
UniProt O43684: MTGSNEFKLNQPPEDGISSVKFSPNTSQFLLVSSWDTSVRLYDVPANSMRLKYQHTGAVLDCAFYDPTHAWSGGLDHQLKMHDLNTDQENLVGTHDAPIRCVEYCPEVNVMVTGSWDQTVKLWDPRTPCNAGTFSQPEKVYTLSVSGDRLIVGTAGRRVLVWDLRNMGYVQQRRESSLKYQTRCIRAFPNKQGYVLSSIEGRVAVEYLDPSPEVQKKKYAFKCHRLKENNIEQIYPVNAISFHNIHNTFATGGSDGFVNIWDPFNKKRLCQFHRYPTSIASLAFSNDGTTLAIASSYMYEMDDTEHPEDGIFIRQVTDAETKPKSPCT

Molecular target: LAP-KNL1 (human) (UniProt Q8NG31)
Assay: affinity purification with mass spectrometry; SILAC; LAP-BUB1 or LAP-KNL1 coupled to GFP-trap from mitotic (nocodazole) HeLa lysate; cells treated with 500 nM Reversine for 30 min or DMSO; lysis in 500 mM NaCl, washes with 2 M NaCl and 50 mM NaCl

Bub3 (from UniProt O43684 1-328)
binding: binds
